Assay results taken from patent publication EP3049422B1, “INTUMESCENT COATINGS” (MIPA SE, priority 2013, dated 2015).

Assay: Fire test (Brandtest) of impregnated pulp sheets with Bunsen burner
Conditions: Zellstoff sheets 3x3 cm, 20%ige Lösung, 300 s, dried; Bunsenbrenner
For `O=C1CN(CN2CC(=O)NC2=O)C(=O)N1` [1,1'-(Methylen) bishydantoin Calcium, Calcium(II)N,N'-methylenbishydantoinat], the Brandtest was “Brennbar”.
For `O=C1CN(CN2CC(=O)NC2=O)C(=O)N1` [1,1'-(Methylen) bishydantoin Kalium, Kalium(I)N,N'-methylenbishydantoinat], the Brandtest was “Starke Intumeszenz”.
In the case of `O=C1CN(CN2CC(=O)NC2=O)C(=O)N1` [1,1'-(Methylen) bishydantoin Natrium, Natrium(I)N,N'-methylenbishydantoinat], the Brandtest was “Intumeszenz”.
For `CC(N1CC(=O)NC1=O)N1CC(=O)NC1=O` [1,1'-(Methylmethylen) bishydantoin Calcium] [Calcium(II)N,N'-(methylmethylen)bishydantoinat], the Brandtest was “Brennbar”.
For `CC(N1CC(=O)NC1=O)N1CC(=O)NC1=O` [1,1'-(Methylmethylen) bishydantoin Kalium] [Kalium(I)N,N'-(methylmethylen)bishydantoinat], the Brandtest was “Starke Intumeszenz”.
For `CC(N1CC(=O)NC1=O)N1CC(=O)NC1=O` [1,1'-(Methylmethylen) bishydantoin Natrium] [Natrium(I)N,N'-(methylmethylen)bishydantoinat], the Brandtest was “Starke Intumeszenz”.
With `NC(=O)NC1NC(=O)NC1=O` (stereo not drawn) [Allantoin Calcium, Calcium(II)allantoinat] the Brandtest was “Brennbar”.
With `NC(=O)NC1NC(=O)NC1=O` (stereo not drawn) [Allantoin Kalium, Kalium(I)allantoinat] the Brandtest was “Starke Intumeszenz”.
In the case of `NC(=O)NC1NC(=O)NC1=O` (stereo not drawn) [Allantoin Natrium, Natrium(I)allantoinat], the Brandtest was “Intumeszenz”.
In the case of `O=C1CN(CN2CC(=O)[N-]C2=O)C(=O)[N-]1.OC[P+](CO)(CO)CO.OC[P+](CO)(CO)CO` [Bis[tetrakis(hydroxymethyl)phosphonium]N,N'-methylenbishydantoinat], the Brandtest was “Selbstlöschend; Starke Rauchbildung”.
With `O=C1CNC(=O)N1` [Hydantoin Kalium, Kalium(I)hydantoinat] the Brandtest was “Starke Intumeszenz”.
For `O=C1CNC(=O)N1` [Hydantoin Natrium, Natrium(I)hydantoinat], the Brandtest was “Intumeszenz”.
In the case of `O=C1CNC(=O)N1` [Hydantoin Tetramethylammonium, Tetramethylammoniumhydantoinat], the Brandtest was “Brennbar”.

Same assay, conditions: cell prints a dash instead of words; water-insoluble salts, tried as suspension
In the case of `O=C1CNC(=O)N1` [Hydantoin Calcium, Calcium(II)hydantoinat], the Brandtest was “-”.

Same assay, conditions: water-insoluble salt applied as suspension
For `O=C1CNC(=O)N1` [Hydantoin Calcium, Calcium(II)hydantoinat], the Brandtest was “versagte beim Brandtest”.
